Among all 320,000 compounds or so, about 22,000 (6.9%) were called active. Inconclusive results, whose numbers are uncertain, are shown with a selection of clear calls. Calls come from the whole dose curve; as a rule, active = well fitted inhibition curve with a large enough effect; inconclusive = small, poorly fitted or top-dose-only effect, or another doubt; inactive = no such curve, though single readings can be large or run the other way. A potency beside an inconclusive call is a rough fit, not a confirmed value.
Assay: Primary qHTS for delayed death inhibitors of the malarial parasite plastid, 96 hour incubation
Conditions: P. falciparum luciferase reporter growth; series mostly up to 28.7 µM
Outline: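 Compounds incubated with erythrocytes infected by luciferase-expressing P. falciparum (2% hematocrit, 0.05% parasitemia final) for 96 hours, 37 C in 5% CO2. Growth inhibition scored as decreased luciferase luminescence.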
With `COc1ccc(C2NC(=S)NC3=C2CCCC3=C2SCCS2)cc1` (stereo not given) the Potency was inconclusive: 13.1 µM [inhibitor, single point].
For `CCOc1ccc2nc(SCC(=O)NCC3CCCO3)c(C#N)cc2c1` (stereo not given), the Potency was “inactive”.
With `O=S(=O)(c1ccc(F)c(F)c1F)N1CCN(C(=S)NC2CC3CCC2C3)CC1` (stereo not given) the Potency was inconclusive: 2.33 µM [inhibitor, full curve].
In the case of `Cc1ccc(Cl)cc1NC(=S)NN`, the Potency was inconclusive: 13.1 µM [inhibitor, single point].
With `O=S(=O)(NCC(c1ccco1)N1CCc2ccccc2C1)c1ccc(F)cc1` (stereo not given) the Potency was “inactive”.
In the case of `Cc1cc(N2CCC(C)CC2)nc(-c2ccccc2O)n1`, the Potency was “inactive”.
With `COCCCNc1c2c3c(cccc3[nH]c1=O)C(=O)c1ccccc1-2` the Potency was inconclusive: 4.15 µM [inhibitor, partial curve].
For `CN(C)c1oc(-c2cccs2)nc1C#N`, the Potency was “inactive”.
For `Cc1cc(Cl)ccc1OCC(=O)NC1CCCC1`, the Potency was inconclusive: 0.522 µM [inhibitor, full curve, poor fit].
In the case of `Cc1ccc(NC(=O)Cc2nnc(SCC(=O)Nc3ccc(N4CCOCC4)cc3)n2C)cc1`, the Potency was “inactive”.
In the case of `CN1CCN(NC(=O)c2cc(-c3ccc(Cl)s3)nc3ccccc23)CC1`, the Potency was “inactive”.
For `CCOC(=O)c1nnc(-c2ccccc2)[nH]c1=O`, the activity change, negative = inhibition was inactive: -30.8% [at 1.15 µM].
With `Cc1n[nH]c(C)c1S(=O)(=O)N(CC(=O)Nc1ccc2c(c1)OCCO2)c1ccc(C(C)C)cc1` the Potency was inconclusive: 14.7 µM [inhibitor, partial curve, poor fit].
With `O=C(O)COCCN1CCN([C@@H](c2ccccc2)c2ccc(Cl)cc2)CC1` the Potency was active: 4.05 µM.
In the case of `COc1ccc(-c2nn3c(-c4ccc(F)cc4)nnc3s2)cc1`, the Potency was inconclusive: 18.5 µM [inhibitor, single point].
For `S=C1Nc2ccccc2Sc2ccccc21`, the Potency was inconclusive: 10.4 µM [inhibitor, single point].
For `COc1ccc(N=C2SCC(=O)N2CCc2ccc(OC)c(OC)c2)cc1`, the Potency was inconclusive: 18.5 µM [inhibitor, single point].
In the case of `COc1ccc(CCNC(=O)CCc2cn(C)c3ccccc23)c(OC)c1OC`, the Potency was inconclusive: 18.5 µM [inhibitor, single point].
For `O=c1cc(CSc2nnc3ccccn23)c2c(ccc3ccccc32)o1`, the Potency was “inactive”.
In the case of `CCCCNC(=O)N(O)C1N(/N=C/c2ccccc2OC)C(=S)SC1(C)C` (stereo not given), the Potency was “inactive”.
In the case of `S=c1nc(C23CC4CC(CC(C4)C2)C3)nc2sccn12`, the Potency was inconclusive: 18.5 µM [inhibitor, single point].
For `O=C(Cc1coc2ccc3ccccc3c12)NCc1ccccc1`, the Potency was inconclusive: 18.5 µM [inhibitor, single point].
With `CCCc1cc(=O)[nH]c(SCC(=O)NC(=O)OCC)n1` the Potency was “inactive”.
With `CN(CCC#N)C(=O)CSc1ncnc2sc(-c3ccccc3)cc12` the Potency was inconclusive: 18.5 µM [inhibitor, single point].
With `CN=Cc1sc2ccccc2c1O` the Potency was inconclusive: 0.0033 µM [inhibitor, full curve, poor fit].
For `Cc1[nH]c2c(C)cccc2c(=O)c1Br`, the Potency was inconclusive: 1.65 µM [inhibitor, full curve].
For `COCCNC(=O)c1c[nH]c2ccc(S(=O)(=O)Nc3ccccc3F)cc2c1=O`, the Potency was “inactive”.
For `COC(=O)c1c(-c2ccccc2)csc1NC(=O)c1c(-c2ccccc2)noc1C`, the Potency was inconclusive: 10.4 µM [inhibitor, single point].
In the case of `COc1ccc(-c2ccc3c(N)c(C(=O)c4ccc(OC)c(OC)c4)sc3n2)cc1`, the Potency was inconclusive: 10.4 µM [inhibitor, partial curve, poor fit].
With `C[N+]1(C2CCC3CCCC2C3O)CCCC1` (stereo not given) the Potency was inconclusive: 18.5 µM [inhibitor, single point].
For `O=C(NCCCN1CCN(c2ccccc2F)CC1)C1CCC(=O)N1C1CCCC1` (stereo not given), the Potency was inconclusive: 11.7 µM [inhibitor, partial curve, poor fit].
With `Cc1ccc(-n2nc3c(=O)n(CC(=O)c4ccc(F)cc4)nc(C)c3c2C)cc1` the Potency was inconclusive: 18.5 µM [inhibitor, single point].
For `COc1ccc(/C=N/n2c(N)nc3ccccc32)cc1OC`, the activity change, negative = inhibition was inactive: 13.5% [at 5.75 µM].
In the case of `CC(NC(=O)Cc1ccccc1)C1COc2ccccc2O1` (stereo not given), the Potency was inconclusive: 18.5 µM [inhibitor, partial curve, poor fit].
With `CCCCCCCCCCOC(=O)Cn1c(COc2ccccc2)[n+](C)c2ccccc21` the Potency was inconclusive: 4.15 µM [inhibitor, full curve].
In the case of `COc1ccc(Nc2ccc3c(c2)=NC2(CCCCC2)[N+]=3[O-])cc1`, the Potency was inconclusive: 11.7 µM [inhibitor, single point].
With `CCOC(=O)C1(Cc2ccccc2)CCCN(C(=O)c2cnn(CC)c2)C1` (stereo not given) the Potency was inconclusive: 1.17 µM [inhibitor, partial curve, poor fit].
With `CSc1ccc(C#N)cc1NC(=O)c1ccccc1C` the Potency was inconclusive: 2.33 µM [inhibitor, partial curve, poor fit].
With `O=C(Nc1ccccc1C(=O)Nc1ccccc1)c1ccco1` the Potency was inconclusive: 10.4 µM [inhibitor, single point].
For `Cc1ccc(NC(=O)CSc2ccccc2)cc1S(=O)(=O)N1CCCCC1`, the Potency was inconclusive: 11.7 µM [inhibitor, single point].
In the case of `COc1ccc(/C=C2\Sc3ccc(C(=O)NCC4CCCO4)cc3N(C)C2=O)cc1` (stereo not given), the Potency was inconclusive: 18.5 µM [inhibitor, single point].
For `COC(=O)CC1(C(=O)OC)Oc2ccc(Br)cc2C(=O)N1c1cccc(Cl)c1Cl` (stereo not given), the Potency was active: 13.1 µM.
For `COc1cc(C(=O)NCC(c2ccco2)N2CCCC2)ccc1OCc1ccccc1` (stereo not given), the Potency was active: 2.62 µM.
With `Cc1cccc(Cl)c1NC(=S)N1CCN(c2ccc([N+](=O)[O-])cn2)CC1` the Potency was active: 1.65 µM.
In the case of `Cc1ccc(-n2c(Cc3cccs3)nnc2SCC(=O)Nc2ccc(S(N)(=O)=O)cc2)cc1`, the Potency was inconclusive: 10.4 µM [inhibitor, single point].
For `O=C(Nc1ccc(F)cc1)Nc1ccc(NC(=O)c2ccccc2O)cc1`, the Potency was “inactive”.
For `COc1cc2c3cc1Oc1cc(ccc1O)C[C@@H]1c4c(cc(OC)c(O)c4Oc4cccc(c4)C[C@@H]3N(C)CC2)CC[N+]1(C)C`, the Potency was “inactive”.
In the case of `CCOC(=O)C1(CCOc2ccccc2)CCN(Cc2ccc(C(=O)OC)cc2)CC1`, the Potency was inconclusive: 11.7 µM [inhibitor, single point].
In the case of `CCOC(=O)c1sc(NC(=O)C(OC(C)=O)c2ccccc2)nc1C` (stereo not given), the Potency was active: 10.4 µM.
With `CC1=NN(c2ccccc2)C(=O)/C1=C\C=C1/N(C)c2ccccc2C1(C)C` the Potency was inconclusive: 5.86 µM [inhibitor, partial curve].
For `COc1cc(CN2CCC(C(=O)NC3CCCC3)CC2)ccc1O`, the Potency was inconclusive: 18.5 µM [inhibitor, single point].
For `O=C1c2ccccc2NC(c2ccc(Cl)cc2Cl)N1Cc1ccccc1` (stereo not given), the Potency was inconclusive: 18.5 µM [inhibitor, single point].
In the case of `CCN(CC)CCn1c2ccccc2c2n[nH]c(=S)nc21`, the Potency was inconclusive: 18.5 µM [inhibitor, single point].
For `Cc1ccc(NC(=S)N(CCC(C)C)C(C)c2ccncc2)c(Cl)c1` (stereo not given), the Potency was inconclusive: 18.5 µM [inhibitor, single point].
In the case of `CC(=O)O/N=C(\N)c1cnn2c(C(F)(F)F)cc(C(F)(F)F)nc12`, the Potency was “inactive”.
With `Nc1ncnc2nc(SCC(=O)Nc3ccccc3F)[nH]c12` the Potency was inconclusive: 11.7 µM [inhibitor, single point].
In the case of `CN(Cc1ccc(F)cc1)C(=O)c1cccc(S(=O)(=O)N2CCN(c3ccc(F)cc3)CC2)c1`, the Potency was inconclusive: 10.4 µM [inhibitor, partial curve, poor fit].
With `COc1cccc(-c2cc(C(F)(F)F)nc(-n3cncn3)n2)c1` the Potency was inconclusive: 5.22 µM [inhibitor, partial curve].
In the case of `CCc1ccc(CN(C)C(=O)CCc2nnc(Cc3cccc(C)c3)o2)nc1`, the Potency was inconclusive: 13.1 µM [inhibitor, partial curve, poor fit].
In the case of `CC1(c2ccccc2)NC(=O)N(CC(=O)Nc2cc(Cl)ccc2N2CCOCC2)C1=O` (stereo not given), the Potency was inconclusive: 9.28 µM [inhibitor, single point].
For `CC1(C(=O)NCc2cccnc2)CCC(=O)N1Cc1cccs1` (stereo not given), the Potency was inconclusive: 18.5 µM [inhibitor, single point].
With `Fc1ccc(N2Cc3ccsc3C=N2)cc1` the Potency was “inactive”.
For `COc1ccc(OCc2ccc(C(=O)N3CCOCC3)cc2)cc1`, the Potency was “inactive”.
For `Nc1nc(SCC(=O)Nc2ccc(Cl)c(S(=O)(=O)N3CCOCC3)c2)n[nH]1`, the Potency was inconclusive: 11.7 µM [inhibitor, partial curve, poor fit].
For `CCN(CC(=O)Nc1c(F)cccc1F)C(=O)c1ccc(N2CCOCC2)c([N+](=O)[O-])c1`, the Potency was inconclusive: 11.7 µM [inhibitor, partial curve].
In the case of `COc1cc(C(=O)OCC(=O)NCCCc2ccccc2)ccc1OCC(C)C`, the Potency was active: 5.86 µM.
In the case of `COCCN(C(=O)COC(=O)CCS(=O)(=O)c1ccccc1)c1c(N)n(Cc2ccccc2)c(=O)[nH]c1=O`, the Potency was “inactive”.
For `COc1ccc(N(CC(=O)Nc2cccnc2)S(=O)(=O)c2ccccc2)cc1OC`, the Potency was “inactive”.
With `Cc1ccccc1Nc1nc(N)nc(COC(=O)CCNS(=O)(=O)c2ccccc2)n1` the Potency was inconclusive: 11.7 µM [inhibitor, single point].
For `CCOc1ccc2c3c1O[C@H]1[C@@H](O)C=C[C@H]4[C@@H](C2)N(C)CC[C@@]341`, the Potency was inconclusive: 16.9 µM [inhibitor, partial curve, poor fit].

Source: PubChem BioAssay AID504834 (National Center for Advancing Translational Sciences (NCATS), 2011)
% is set by controls: 0 for no effect and ±100 for the full control effect; potency is the fitted concentration of half-maximal effect.
